Data from article PMC10326026.
These are yes or no findings as the source states them, for the method shown. In cells and extracts the contact can be indirect. These calls come from enrichment with a bait or labelling near it, and not all partners need be listed. Tags and fused reporters may be left off the sequences shown.

The chains behind the UniProt entries cited, without tags or fusion partners.
UniProt P16403: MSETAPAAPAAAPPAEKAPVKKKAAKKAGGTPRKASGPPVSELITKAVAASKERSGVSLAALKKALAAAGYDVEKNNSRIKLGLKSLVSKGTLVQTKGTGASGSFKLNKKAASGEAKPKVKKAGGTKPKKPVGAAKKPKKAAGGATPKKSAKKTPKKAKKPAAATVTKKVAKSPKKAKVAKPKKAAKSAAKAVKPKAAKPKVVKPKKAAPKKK
UniProt P51784: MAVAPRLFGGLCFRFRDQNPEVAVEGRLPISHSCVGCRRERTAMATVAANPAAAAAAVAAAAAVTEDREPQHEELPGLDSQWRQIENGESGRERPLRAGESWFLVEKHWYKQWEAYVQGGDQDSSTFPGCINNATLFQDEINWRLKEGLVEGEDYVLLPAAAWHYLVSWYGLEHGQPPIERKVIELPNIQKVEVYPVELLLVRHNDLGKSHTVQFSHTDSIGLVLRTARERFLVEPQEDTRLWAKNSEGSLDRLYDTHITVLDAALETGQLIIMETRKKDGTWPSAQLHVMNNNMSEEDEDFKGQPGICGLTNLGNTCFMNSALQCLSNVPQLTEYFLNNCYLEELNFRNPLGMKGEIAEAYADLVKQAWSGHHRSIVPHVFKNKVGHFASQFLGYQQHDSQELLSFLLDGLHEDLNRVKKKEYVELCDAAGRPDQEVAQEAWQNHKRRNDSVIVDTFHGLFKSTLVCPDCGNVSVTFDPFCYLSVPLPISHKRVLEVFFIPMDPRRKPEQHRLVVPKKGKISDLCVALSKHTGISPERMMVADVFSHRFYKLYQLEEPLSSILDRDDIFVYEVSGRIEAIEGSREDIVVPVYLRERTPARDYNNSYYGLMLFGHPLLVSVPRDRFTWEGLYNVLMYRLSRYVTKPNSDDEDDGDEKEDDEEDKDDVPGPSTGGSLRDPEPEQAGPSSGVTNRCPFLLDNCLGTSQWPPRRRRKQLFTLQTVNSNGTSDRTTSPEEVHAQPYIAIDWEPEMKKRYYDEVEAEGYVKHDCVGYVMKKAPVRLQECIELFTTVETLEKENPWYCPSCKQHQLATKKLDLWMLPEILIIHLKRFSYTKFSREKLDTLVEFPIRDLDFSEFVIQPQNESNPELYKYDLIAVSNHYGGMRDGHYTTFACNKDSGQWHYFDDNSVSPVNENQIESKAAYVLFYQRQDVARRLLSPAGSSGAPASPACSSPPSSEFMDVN

Biological target: T1, Flag-LSH (lymphoid-specific helicase), expressed in HCT116 cells (human (cDNA from GES-1 cells)) (UniProt Q9NRZ9)
T1 sequence: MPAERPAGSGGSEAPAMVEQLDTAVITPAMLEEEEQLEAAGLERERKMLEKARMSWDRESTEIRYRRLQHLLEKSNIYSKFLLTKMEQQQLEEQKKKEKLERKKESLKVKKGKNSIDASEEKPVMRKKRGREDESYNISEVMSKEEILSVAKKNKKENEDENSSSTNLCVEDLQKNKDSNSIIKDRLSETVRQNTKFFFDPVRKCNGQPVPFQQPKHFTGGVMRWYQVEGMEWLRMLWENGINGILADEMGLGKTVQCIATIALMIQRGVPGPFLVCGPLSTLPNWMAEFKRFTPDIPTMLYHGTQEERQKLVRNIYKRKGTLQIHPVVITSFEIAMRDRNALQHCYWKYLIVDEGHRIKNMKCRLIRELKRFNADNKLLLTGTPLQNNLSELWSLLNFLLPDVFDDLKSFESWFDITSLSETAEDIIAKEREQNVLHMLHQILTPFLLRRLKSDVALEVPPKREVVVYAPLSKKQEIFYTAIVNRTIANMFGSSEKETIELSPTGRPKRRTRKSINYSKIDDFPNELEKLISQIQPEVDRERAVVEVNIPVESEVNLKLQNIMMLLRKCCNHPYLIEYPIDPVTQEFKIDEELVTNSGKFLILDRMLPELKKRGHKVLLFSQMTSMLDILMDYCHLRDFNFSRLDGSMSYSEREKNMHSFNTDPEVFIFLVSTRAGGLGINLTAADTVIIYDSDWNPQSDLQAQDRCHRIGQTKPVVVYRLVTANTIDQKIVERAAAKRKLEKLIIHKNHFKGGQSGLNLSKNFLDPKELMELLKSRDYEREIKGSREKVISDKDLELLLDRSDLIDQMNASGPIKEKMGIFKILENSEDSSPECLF
Assay: affinity purification with mass spectrometry; Flag-LSH immunoprecipitated from HCT116 cells; proteins separated by SDS-PAGE, Coomassie-stained bands cut out and analysed by LC-MS/MS (NanoLC-Q EXACTIVE)

binding | Substance
binds | histone cluster 1 H1 family member c (HIST1H1C), endogenous in HCT116 cells (from UniProt P16403 1-213)
binds | ubiquitin-specific protease 11 (USP11), endogenous in HCT116 cells (from UniProt P51784 1-963) (enzyme)
